From patent US10501453B2, “Benzothiazole or benzoxazole compounds as SUMO activators” (Icahn School of Medicine at Mount Sinai, priority 2012, dated 2019)
Some entries share one result that the patent states for a list of compounds.

Assays:
YFP-SUMO1 = YFP-SUMO1 accumulation (cell image) in HEK-293 cells expressing YFP-SUMO1 and pcDNA3.0-SERCA2a; format: cell-based
Text: (§1) The following antibodies were used for immunoblotting and immunoprecipitation (IP): polyclonal anti-SERCA2a (21th century Biochem Inc.), monoclonal anti-GAPDH (Sigma-Aldrich, catalog no. G8795), monoclonal anti-SUMO 1 (Cell Signaling Technology Inc., catalog no. 4930), anti-mouse horseradish peroxidase (HRP) (Pierce Biotechnology Inc., catalog no. 32430), and anti-rabbit HRP (Pierce Biotechnology Inc., catalog no. 32460). YFP-tagged SUMO1, pcDNA3.0-SERCA2a, and HA-tagged Ubc9 plasmids were used for the transfection. The plasmid DNA was amplified in the Escherichia coli strain DH5a and extracted by using a commercial purification kit (Qiagen, catalog no. 12263). Purified plasmid was resuspended in sterile TE buffer (10 mM Tris-HCl and 1 mM EDTA, pH 7.6). Only the preparation highest purity (A260/A280>1.8) was used for transfection. 1 μg of each plasmid was used for transfection. HEK-293 cells (American Type Culture Collection, catalog no. CRL-1873) were grown at 37° C. and under a 5% CO2 humidified atmosphere in Dulbecco's modified Eagle's medium (DMEM, Cellgro, catalog no. 10-0 13-CM) containing 10% fetal bovine serum (SAFC Bioscience, catalog no. 12107) and 100 i.u of penicillin/ml and 100 μg of streptomycin/ml. HEK-293 cells were seeded at a density of 3-5×10^5 cells per 60 mm culture dish in DMEM. The cells were transiently transfected using Lipofectamine 2000 (Invitrogen, catalog no. 11668) with indicated expression plasmids. After 24 hours, the cells were treated with either small molecules or dimethyl sulfoxide (DMSO, Sigma-Aldrich, catalog no. D2650).
(§2) Each compound was added at 10 μM. DMSO was used as a control. After 24 hours at 37° C., SERCA2a SUMOylation and functional analysis were determined.
Cellular permeability and potential activity of the compounds were examined by tracking of the YFP-SUMO1. HEK-293 cells expressing YFP-SUMOI and pcDNA3.0-SERCA2a were incubated with either 10 μM DMSO or 10 μM small molecules for 24 hours at 37° C. Fluorescent signals were monitored by fluorescence microscopy. HA-tagged Ubc9 expressing cells were served as a positive control.
The ability of the Example compound to SUMOylate SERCA2a was examined using an in vitro system in HEK 293 cells where both SERCA2a and SUMO 1 are expressed. The cellular permeability and potential activity of the Example compounds was examined by tracking of the YFP-SUM01. HEK-293 cells expressing YFP-SUM01 and pcDNA3.0-SERCA2a were treated with either 10 μM DMSO or 10 μM indicated Example 1 for 24 hrs. Fluorescent signals were monitored by fluorescence microscopy. HA-Ubc9 expressing cells were served as a positive control. The SERCA2a SUMOylation profiling was then analyzed by using the same cells (FIG. 1B, WCL, whole cell lysates; S-SERCA2a, SUMOylated SERCA2a).

SERCA2a = SERCA2a SUMOylation assay in HEK-293 cells (immunoprecipitation/immunoblotting); format: cell-based
Text: as §1, §2
Equal amounts of protein from either small molecule treated or DMSO treated cells or immunoprecipitates were resolved by 7.5% SDS-PAGE and transferred to nitrocellulose membranes (Bio-Rad, catalog no. 162-0112). The membranes were blocked for 1 hour at room temperature with 5% non-fat milk (Cell Signaling Technology Inc., catalog no. 9999) in TBST (10 mM Tris-HCl, 150 mM NaCl, and 0.05% tween-20, pH 8.0). The blots were incubated with specific primary antibodies at 4° C. for overnight. The blots were then washed five times for 10 minutes each with TBST and incubated for 1 hour with HRP-conjugated secondary antibodies in TBST with 5% non-fat milk. After five times TBST washes, the protein bands were visualized with enhanced chemiluminescence (Pierce Biotechnology Inc., catalog no. 32132) and exposed to x-ray film (Denville Scientific Inc., catalog no. E3012). GAPDH expression provided an internal control. […]

In the case of `COc1ccc(-c2nnc(Nc3nc4c(OC)cccc4s3)o2)cc1` [Example 1, N-(4-methoxybenzo[d]thiazol-2-yl)-5-(4-methoxyphenyl)-1,3,4-oxadiazol-2-amine], the “accumulation of SUMO1 in the nucleus” value (YFP-SUMO1) is reported as “induce accumulation of SUMO1 in the nucleus” and the “SERCA2a SUMOylation in HEK 293 cells” value (SERCA2a) is reported as “induce SERCA2a SUMOylation”.

For `Fc1ccc(-c2nnc(Nc3nc4c(F)cccc4s3)o2)cc1` [Example 2, N-(4-fluorobenzo[d]thiazol-2-yl)-5-(4-fluorophenyl)-1,3,4-oxadiazol-2-amine], the “accumulation of SUMO1 in the nucleus” value (YFP-SUMO1) was “induce accumulation of SUMO1 in the nucleus” and the “SERCA2a SUMOylation in HEK 293 cells” value (SERCA2a) was “induce SERCA2a SUMOylation”.

With `COc1cccc(-c2nnc(Nc3nc4c(F)cccc4s3)o2)c1` [Example 3, N-(4-fluorobenzo[d]thiazol-2-yl)-5-(3-methoxyphenyl)-1,3,4-oxadiazol-2-amine] the “accumulation of SUMO1 in the nucleus” value (YFP-SUMO1) was “induce accumulation of SUMO1 in the nucleus” and the “SERCA2a SUMOylation in HEK 293 cells” value (SERCA2a) was “induce SERCA2a SUMOylation”.

For `COc1ccc(-c2nnc(Nc3nc4c(F)cccc4s3)o2)cc1` [Example 4, N-(4-fluorobenzo[d]thiazol-2-yl)-5-(4-methoxyphenyl)-1,3,4-oxadiazol-2-amine], the “accumulation of SUMO1 in the nucleus” value (YFP-SUMO1) was “induce accumulation of SUMO1 in the nucleus” and the “SERCA2a SUMOylation in HEK 293 cells” value (SERCA2a) was “induce SERCA2a SUMOylation”.
